Laboratory results as given in article PMC5207774, “Atomic structures of fibrillar segments of hIAPP suggest tightly mated β-sheets are important for cytotoxicity” (eLife, 2017).
Results are given in words; binding and its absence hold for the method and conditions named. Some entries that bind do so weakly or less than the wild type.

How the values were obtained:
[1] = target: hIAPP segment 15–25 WT (15-…-25) (human); experiment: turbidity (absorbance at 340 nm) + negative-stain EM; fibrils formed for one week, monomer equivalent concentrations, treated with water or increasing amounts of SDS, heated at 55°C for 20 min; both purified
[2] = target: hIAPP segment 15–25 WT (15-…-25) (human); experiment: condition: only with heat (55°C for 20 min) and 1% SDS; turbidity (absorbance at 340 nm) + negative-stain EM; fibrils formed for one week, monomer equivalent concentrations, treated with water or increasing amounts of SDS, heated at 55°C for 20 min; both purified

binding [1]: binds weakly
binding [2]: no binding
B1: hIAPP segment 15–25 WT (15-FLVHSSNNFGA-25) (peptide)
peptide: FLVHSSNNFGA
notes: human islet amyloid polypeptide (hIAPP), residues 15-25, wild type; numbers count on: the mature protein (37-residue hormone); Forms 3D nanocrystals and fibrils (striated ribbons); also called spine segment 15–25 WT; source: synthetic peptide: GenScript, greater than 98% purity
